Results are given in words; binding and its absence hold for the method and conditions named. Some binding calls cover weakened binding; strength is not graded here.
Target: Human PINK1 (residues 104–581, F104M) with a C-terminal His8 tag (human) (UniProt Q9BXM7)
Test: cryo-EM structure

By UniProt entry, the sequences of proteins in these tests, tags left out. Where a name states a change or a piece, a line headed by the entry shows the natural chain unless it says otherwise. Residues count along the entry.
UniProt P08238, 3-724: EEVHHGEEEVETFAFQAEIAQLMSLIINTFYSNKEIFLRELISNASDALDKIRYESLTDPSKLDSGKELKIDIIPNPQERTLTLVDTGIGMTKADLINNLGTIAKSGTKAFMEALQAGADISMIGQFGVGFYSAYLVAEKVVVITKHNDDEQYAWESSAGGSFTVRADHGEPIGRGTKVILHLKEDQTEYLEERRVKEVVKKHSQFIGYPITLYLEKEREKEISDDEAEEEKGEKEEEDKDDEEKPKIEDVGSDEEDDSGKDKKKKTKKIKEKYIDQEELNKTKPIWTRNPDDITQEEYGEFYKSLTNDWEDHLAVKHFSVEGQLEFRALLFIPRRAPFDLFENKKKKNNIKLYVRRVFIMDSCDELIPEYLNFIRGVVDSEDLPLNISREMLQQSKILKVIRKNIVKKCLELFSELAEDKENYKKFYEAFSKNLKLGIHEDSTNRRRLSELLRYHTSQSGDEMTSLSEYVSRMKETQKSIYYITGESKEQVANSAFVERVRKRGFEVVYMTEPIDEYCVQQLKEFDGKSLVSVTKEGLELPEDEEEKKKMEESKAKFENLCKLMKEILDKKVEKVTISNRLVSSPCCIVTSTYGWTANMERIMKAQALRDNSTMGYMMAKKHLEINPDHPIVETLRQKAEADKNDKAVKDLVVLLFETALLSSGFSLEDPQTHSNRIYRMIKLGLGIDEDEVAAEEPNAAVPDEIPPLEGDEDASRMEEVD

Q: How did the binding turn out when “Human HSP90β (from UniProt P08238 3-724)” was run?
A: binds

— doi:10.1101/2025.10.17.682828
